Laboratory results: article PMC4515828
These are yes or no findings as the source states them, for the method shown. Some binding calls cover weakened binding; strength is not graded here.

By UniProt entry, the sequences of proteins in these tests, tags left out. Where a name states a change or a piece, a line headed by the entry shows the natural chain unless it says otherwise. Residues count along the entry.
UniProt P40337: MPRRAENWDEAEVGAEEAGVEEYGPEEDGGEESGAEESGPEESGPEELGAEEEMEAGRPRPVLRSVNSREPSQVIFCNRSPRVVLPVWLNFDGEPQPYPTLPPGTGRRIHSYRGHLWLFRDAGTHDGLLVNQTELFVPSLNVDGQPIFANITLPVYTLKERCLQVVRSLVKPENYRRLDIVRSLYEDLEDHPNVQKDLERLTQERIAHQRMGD
pVHL30 N-terminal tail (pVHL-N), residues 1 to 53: residues 1-53 of P40337
von Hippel-Lindau tumor suppressor protein, isoform pVHL19: residues 54-213 of P40337

Experiments:
Assay in all cases: two-hybrid; Matchmaker Gold Yeast Two-Hybrid System, Y2HGold strain, MEL1 (alpha-galactosidase) reporter quantified colorimetrically in liquid culture; pVHL constructs in pGBKT7 as baits, p14ARF or pVHL constructs in pGADT7 as preys; activity related to the expression level of the fusion proteins
[1] = biological target: von Hippel-Lindau tumor suppressor protein, isoform pVHL30 (human) (UniProt P40337)
[2] = biological target: von Hippel-Lindau tumor suppressor protein, isoform pVHL19 (human) (UniProt P40337)
[3] = biological target: pVHL30 N-terminal tail (pVHL-N), residues 1 to 53 (human) (UniProt P40337)

binding [1] | binding [2] | binding [3] | Substance
no binding | binds | binds | von Hippel-Lindau tumor suppressor protein, isoform pVHL19 (from UniProt P40337-1 54-213)
binds | no binding | binds | p14ARF (from UniProt Q8N726-1 1-132)
